Experimental data reported in patent US8703970B2, “Compounds having photochemically removable protecting groups based on an electrocyclic reaction between a chromophore attached via an anilide group to a benzothiophene ring” (Marquette University, priority 2012, dated 2014).
Some of these results come from one statement about several compounds together. Some ranges recur; such a range may be that of the whole group of compounds.

Assay: Preparative photolysis with Pyrex-filtered Hanovia medium pressure mercury lamp, products quantified by NMR
Format: physicochemical
Conditions: N2 saturated aqueous 100 mM phosphate buffer (pH 7) in CH3CN; NMR integration
Experimental: For the ester ε=5600 M^−1 cm^−1, while the acid has ε=4200 M^−1 cm^−1. For preparative photolyses Pyrex-filtered light from a Hanovia medium pressure mercury lamp was used. A sunlamp was also effective at photolysing all of the compounds in the study. Quantum yields were determined at 390 nm using a monochromator for wavelength selection utilizing a high pressure mercury lamp as the light source.
Similarly, preparative photolysis of […] acid 9 (LG^−=Cl^−) in N2 saturated 75% H2O in CH3CN containing 100 mM phosphate buffer (pH 7) gave the single regioisomeric photoproduct 27 in 98% yield by NMR integration, as above for 8 (LG^−=Cl^−). The regiospecificity was again established by 600 MHz ^1H NMR COSY. […] Photolysis of acid 9 (LG^−=PhS^−, HS^−, PhCH2S^−) under the same conditions as 8 (LG^−=Cl^−) also gave photoproduct 27 in 98-100% yields upon expulsion of these thiolate leaving groups. For acid 9 (LG^−=PhCH2S^−) the released benzyl thiol was quantified in photolyses of 4.5×10^−3 M solutions of 35% D2O in CD3CN containing phosphate buffer (as above) contained in NMR tubes. Yields were 96% thiol and 99% of 27 at 100% conversion of reactant by ^1H NMR spectroscopy. Very similar results were found when DMSO-d6 was the photolysis solvent.
The regiospecific formation of 26 or 27 in the preparative photolyses of ester 8 or acids 9 requires the presence of the ester and carboxylic acid substituents attached to the C-6 position of the benzothiophene ring system of the reactants. In contrast, photolyses of the unsubstituted benzothiophene ring system 7 (LG^−=Cl^−) in 16% water containing 100 mM phosphate buffer in CH3CN gave both regioisomeric photoproducts 30 and 31 as a 42:58 mixture, respectively, in 100% yield according to 400 MHz ^1H NMR spectroscopy (Scheme 6).
To determine whether a “heavy atom effect” promoted intersystem crossing of the singlet excited state to the triplet excited state, work focused upon the C-7 bromide of thioxanthone ester 10 (LG^−=Cl^−). […]

Chemical yield of leaving group expulsion / photoproduct formation in preparative photolysis, 98-100%:
CN(C(=O)c1sc2cc(C(=O)O)ccc2c1SCc1ccccc1)c1ccc2sc3ccccc3c(=O)c2c1 [9 (LG^−=PhCH2S^−), 3-benzylsulfanyl-2-[methyl-(9-oxo-9H-thioxanthen-2-yl)-carbamoyl]-benzo[b]thiophene-6-carboxylic acid]
CN(C(=O)c1sc2cc(C(=O)O)ccc2c1S)c1ccc2sc3ccccc3c(=O)c2c1 [9 (LG^−=HS^−), 3-mercapto-2-[methyl-(9-oxo-9H-thioxanthen-2-yl)-carbamoyl]-benzo[b]thiophene-6-carboxylic acid]
CN(C(=O)c1sc2cc(C(=O)O)ccc2c1Sc1ccccc1)c1ccc2sc3ccccc3c(=O)c2c1 [9 (LG^−=PhS^−), 2-[methyl-(9-oxo-9H-thioxanthen-2-yl)-carbamoyl]-3-phenylsulfanyl-benzo[b]thiophene-6-carboxylic acid]
